Assay results from the supplement of paper PMC11732987, “Enantioselective OTUD7B fragment discovery through chemoproteomics screening and high-throughput optimisation” (Communications Chemistry, 2025).
The other results are listed elsewhere or left out. The data scatter; read single values as rough.

Chains of the proteins cited; added tags and fusions are not shown. Lines headed by an entry give the natural chain unless they say otherwise; changes in a name come on top. Residues count along the entry.
UniProt P46013, 765-786: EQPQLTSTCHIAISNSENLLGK
UniProt Q00013, 228-247: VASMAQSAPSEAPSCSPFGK
UniProt Q9H8H3: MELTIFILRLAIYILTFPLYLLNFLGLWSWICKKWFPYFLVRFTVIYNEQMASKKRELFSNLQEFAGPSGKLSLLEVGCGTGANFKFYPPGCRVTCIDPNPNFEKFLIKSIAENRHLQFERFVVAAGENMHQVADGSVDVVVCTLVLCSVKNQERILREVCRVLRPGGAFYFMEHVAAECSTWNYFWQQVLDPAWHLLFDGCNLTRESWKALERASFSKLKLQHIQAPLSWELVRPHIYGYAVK
UniProt Q86W50: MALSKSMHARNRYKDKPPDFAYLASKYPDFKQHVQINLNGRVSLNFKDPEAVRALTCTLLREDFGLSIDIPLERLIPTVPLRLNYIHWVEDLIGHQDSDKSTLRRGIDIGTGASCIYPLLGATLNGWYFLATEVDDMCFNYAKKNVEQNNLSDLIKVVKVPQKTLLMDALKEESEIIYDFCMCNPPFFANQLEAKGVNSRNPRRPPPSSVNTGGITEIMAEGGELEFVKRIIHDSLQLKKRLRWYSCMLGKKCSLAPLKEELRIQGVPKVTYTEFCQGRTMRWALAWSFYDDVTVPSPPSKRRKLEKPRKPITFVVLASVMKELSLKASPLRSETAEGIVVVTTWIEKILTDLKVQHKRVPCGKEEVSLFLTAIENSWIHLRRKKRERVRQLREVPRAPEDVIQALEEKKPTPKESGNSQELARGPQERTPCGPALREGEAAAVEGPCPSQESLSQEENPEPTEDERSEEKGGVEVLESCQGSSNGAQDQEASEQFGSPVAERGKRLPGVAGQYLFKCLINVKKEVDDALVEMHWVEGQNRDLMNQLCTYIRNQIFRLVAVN
UniProt Q5TGZ0: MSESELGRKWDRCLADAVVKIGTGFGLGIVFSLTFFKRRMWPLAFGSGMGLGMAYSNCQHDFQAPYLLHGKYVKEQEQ
UniProt Q9BVC4: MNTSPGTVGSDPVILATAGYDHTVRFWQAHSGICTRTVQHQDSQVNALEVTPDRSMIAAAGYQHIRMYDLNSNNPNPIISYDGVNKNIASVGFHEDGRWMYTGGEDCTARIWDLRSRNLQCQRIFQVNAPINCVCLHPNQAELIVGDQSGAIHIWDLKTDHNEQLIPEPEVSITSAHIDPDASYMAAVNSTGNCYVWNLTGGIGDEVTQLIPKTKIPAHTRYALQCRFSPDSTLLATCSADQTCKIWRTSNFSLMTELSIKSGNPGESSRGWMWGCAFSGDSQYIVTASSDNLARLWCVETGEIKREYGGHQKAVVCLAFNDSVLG
UniProt Q9HAP2, 180-199: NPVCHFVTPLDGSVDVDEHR
UniProt Q9Y316: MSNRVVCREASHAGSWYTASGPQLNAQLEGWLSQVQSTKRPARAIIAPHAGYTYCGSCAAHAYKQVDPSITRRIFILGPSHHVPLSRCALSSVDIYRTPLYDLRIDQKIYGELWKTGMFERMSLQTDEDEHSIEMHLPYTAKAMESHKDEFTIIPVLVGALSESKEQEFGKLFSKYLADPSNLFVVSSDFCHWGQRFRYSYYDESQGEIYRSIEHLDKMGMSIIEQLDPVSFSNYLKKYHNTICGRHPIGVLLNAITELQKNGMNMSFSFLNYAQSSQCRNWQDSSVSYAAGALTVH
UniProt Q96PC5: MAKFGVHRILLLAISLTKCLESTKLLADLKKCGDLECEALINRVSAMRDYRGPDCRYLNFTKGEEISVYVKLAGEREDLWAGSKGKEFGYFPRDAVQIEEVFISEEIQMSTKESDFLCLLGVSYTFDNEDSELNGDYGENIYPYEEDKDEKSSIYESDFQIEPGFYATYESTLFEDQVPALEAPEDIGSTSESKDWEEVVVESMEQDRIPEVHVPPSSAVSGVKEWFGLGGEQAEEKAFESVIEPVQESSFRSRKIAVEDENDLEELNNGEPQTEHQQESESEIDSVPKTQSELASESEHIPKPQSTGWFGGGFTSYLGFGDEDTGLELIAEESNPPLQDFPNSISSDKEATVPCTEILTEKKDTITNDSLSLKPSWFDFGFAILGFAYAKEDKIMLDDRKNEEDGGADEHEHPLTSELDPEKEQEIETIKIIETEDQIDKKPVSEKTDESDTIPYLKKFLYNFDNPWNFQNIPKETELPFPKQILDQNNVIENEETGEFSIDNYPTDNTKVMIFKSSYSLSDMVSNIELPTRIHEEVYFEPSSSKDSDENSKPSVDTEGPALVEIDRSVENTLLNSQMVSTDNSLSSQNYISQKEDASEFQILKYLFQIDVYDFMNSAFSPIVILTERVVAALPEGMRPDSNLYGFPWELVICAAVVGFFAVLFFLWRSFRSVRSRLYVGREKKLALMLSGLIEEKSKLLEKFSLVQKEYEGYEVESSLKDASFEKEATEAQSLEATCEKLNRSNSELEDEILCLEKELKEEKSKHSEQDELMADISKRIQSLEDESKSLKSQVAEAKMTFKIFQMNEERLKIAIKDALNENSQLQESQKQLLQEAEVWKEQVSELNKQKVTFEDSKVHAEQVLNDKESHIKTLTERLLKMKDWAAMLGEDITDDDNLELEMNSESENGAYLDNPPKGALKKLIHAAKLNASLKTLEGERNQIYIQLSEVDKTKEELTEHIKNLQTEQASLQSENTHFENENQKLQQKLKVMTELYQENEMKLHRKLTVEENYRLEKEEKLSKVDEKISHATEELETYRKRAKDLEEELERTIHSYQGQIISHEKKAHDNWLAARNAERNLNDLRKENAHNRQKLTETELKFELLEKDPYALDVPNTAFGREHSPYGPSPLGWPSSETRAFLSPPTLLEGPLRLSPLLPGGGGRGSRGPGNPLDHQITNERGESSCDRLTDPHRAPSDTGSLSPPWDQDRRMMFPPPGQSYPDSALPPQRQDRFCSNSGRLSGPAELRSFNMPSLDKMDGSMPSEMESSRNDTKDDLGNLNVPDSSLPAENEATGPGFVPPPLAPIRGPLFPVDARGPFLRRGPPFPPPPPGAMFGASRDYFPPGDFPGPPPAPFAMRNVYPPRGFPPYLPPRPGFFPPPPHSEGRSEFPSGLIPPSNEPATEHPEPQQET
UniProt A0JLT2: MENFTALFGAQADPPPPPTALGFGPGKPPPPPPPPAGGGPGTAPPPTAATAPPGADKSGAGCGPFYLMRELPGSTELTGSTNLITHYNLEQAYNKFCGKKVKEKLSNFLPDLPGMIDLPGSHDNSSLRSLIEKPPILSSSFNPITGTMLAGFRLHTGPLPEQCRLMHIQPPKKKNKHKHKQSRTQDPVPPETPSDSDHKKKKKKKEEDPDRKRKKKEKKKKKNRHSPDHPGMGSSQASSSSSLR
UniProt Q03111: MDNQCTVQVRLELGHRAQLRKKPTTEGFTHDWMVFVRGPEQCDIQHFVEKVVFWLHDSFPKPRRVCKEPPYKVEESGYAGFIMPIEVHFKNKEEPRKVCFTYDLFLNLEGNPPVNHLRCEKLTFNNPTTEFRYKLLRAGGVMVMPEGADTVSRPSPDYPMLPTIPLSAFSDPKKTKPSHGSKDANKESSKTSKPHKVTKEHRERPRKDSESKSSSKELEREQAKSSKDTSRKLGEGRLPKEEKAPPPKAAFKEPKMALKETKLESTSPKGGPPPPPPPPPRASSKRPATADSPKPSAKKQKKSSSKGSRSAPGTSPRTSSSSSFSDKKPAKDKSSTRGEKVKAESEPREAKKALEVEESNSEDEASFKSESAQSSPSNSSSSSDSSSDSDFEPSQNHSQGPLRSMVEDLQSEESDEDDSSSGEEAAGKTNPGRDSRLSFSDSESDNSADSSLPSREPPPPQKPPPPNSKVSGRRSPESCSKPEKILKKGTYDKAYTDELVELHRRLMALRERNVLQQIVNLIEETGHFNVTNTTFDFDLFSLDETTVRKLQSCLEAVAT
UniProt O15344: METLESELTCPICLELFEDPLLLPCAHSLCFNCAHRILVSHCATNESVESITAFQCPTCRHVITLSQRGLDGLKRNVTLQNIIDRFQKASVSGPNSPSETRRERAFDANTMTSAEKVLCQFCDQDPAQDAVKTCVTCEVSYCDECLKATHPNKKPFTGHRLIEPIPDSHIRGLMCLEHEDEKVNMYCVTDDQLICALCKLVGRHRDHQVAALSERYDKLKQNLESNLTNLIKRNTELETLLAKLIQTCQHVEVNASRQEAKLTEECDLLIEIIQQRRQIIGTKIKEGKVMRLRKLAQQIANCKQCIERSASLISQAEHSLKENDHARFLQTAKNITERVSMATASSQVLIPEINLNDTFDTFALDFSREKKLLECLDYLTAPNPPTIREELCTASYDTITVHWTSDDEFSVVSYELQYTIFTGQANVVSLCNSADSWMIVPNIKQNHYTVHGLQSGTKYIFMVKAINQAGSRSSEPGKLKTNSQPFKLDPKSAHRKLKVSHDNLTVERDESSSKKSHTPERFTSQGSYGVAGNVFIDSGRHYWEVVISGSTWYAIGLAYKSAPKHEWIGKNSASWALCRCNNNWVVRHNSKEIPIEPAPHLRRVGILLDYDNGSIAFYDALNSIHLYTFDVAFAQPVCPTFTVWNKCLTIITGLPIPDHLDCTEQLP
UniProt Q9UNW1: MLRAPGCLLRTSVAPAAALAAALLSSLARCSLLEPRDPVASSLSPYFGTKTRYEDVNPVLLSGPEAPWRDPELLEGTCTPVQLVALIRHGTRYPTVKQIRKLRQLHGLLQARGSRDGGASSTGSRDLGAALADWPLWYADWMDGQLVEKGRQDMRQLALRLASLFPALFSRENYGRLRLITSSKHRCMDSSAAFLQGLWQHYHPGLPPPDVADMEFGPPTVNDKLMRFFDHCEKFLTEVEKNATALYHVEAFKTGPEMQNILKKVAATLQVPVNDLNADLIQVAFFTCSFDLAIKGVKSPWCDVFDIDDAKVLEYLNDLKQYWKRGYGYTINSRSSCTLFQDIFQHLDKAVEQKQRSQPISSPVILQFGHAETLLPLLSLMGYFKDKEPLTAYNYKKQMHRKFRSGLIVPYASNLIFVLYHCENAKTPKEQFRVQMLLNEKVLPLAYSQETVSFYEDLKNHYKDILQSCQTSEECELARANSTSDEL
UniProt P40692: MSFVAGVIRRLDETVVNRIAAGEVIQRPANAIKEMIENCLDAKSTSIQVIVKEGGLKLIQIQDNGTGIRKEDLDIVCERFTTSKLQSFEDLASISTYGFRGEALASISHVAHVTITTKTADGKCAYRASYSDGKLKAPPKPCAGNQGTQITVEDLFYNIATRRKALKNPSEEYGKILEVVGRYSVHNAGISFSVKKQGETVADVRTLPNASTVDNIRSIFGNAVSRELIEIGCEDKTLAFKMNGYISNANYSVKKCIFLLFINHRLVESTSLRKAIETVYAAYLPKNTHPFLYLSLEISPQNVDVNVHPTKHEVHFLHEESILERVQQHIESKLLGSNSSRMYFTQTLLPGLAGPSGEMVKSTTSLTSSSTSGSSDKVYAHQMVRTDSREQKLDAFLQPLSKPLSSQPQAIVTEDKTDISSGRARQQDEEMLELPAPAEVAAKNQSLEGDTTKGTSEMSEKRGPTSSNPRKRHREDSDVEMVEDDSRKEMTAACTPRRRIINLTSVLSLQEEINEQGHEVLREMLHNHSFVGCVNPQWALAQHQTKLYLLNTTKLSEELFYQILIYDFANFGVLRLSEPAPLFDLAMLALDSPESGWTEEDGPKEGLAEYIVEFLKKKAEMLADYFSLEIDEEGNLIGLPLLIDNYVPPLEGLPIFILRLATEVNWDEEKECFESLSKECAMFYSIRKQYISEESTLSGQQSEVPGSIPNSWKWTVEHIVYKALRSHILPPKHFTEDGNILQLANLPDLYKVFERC
UniProt Q9HC36: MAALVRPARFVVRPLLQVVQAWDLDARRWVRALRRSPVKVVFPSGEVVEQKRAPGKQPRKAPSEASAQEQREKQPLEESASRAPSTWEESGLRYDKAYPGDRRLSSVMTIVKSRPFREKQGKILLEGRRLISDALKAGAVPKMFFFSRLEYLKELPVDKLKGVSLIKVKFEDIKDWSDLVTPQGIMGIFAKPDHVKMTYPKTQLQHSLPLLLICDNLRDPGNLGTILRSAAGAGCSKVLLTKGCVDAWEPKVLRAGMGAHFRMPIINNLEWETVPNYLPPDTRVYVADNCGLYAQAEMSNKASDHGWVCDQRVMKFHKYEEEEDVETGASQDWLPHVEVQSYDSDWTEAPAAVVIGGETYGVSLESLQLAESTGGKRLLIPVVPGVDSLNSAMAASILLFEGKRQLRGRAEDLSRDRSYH

The targets below were run with ClCC(=O)N[C@H]1CCCc2ccccc12 (assay: log2 mean competition ratio of IA-DTB cysteine labelling (DMSO/compound) (log2 ratio); higher = stronger cysteine engagement by compound). Settings: 50 µM; treatment time: 4 h; cell line lysate: HEK293T.
Description: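 IA-DTB competitive cysteine chemoproteomics in HEK293T RIPA lysate. Lysates were treated with compound 29 or 30 at 50 or 200 µM for 4 h, then IA-DTB (500 µM, 1 h), trypsin-digested, NeutrAvidin-enriched and analysed by diaPASEF. Competition ratio = intensity DMSO / intensity compound (n=4 treated, n=64 DMSO); binding: mean log2 CR ≥ 1 and p ≤ 0.05 plus QC filters. Target is the cysteine site.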

Row | Target | log2 mean competition ratio
1 | MORC4 C349 | 0.109
2 | MICAL2 C703 (UniProt O94851) | 0.183
3 | MKI67 C773 (UniProt P46013) | 0.465
4 | MPP1 C242 (UniProt Q00013) | 0.459
5 | METTL7A C96 (UniProt Q9H8H3) | 0.023
6 | METTL16 C432 (UniProt Q86W50) | -0.233
7 | MICOS10 C13 (UniProt Q5TGZ0) | 0.673
8 | MLST8 C107 (UniProt Q9BVC4) | 0.314
9 | MIX23 C74 | -0.138
10 | MLXIP C183 (UniProt Q9HAP2) | -0.22
11 | MEMO1 C88 (UniProt Q9Y316) | -0.481
12 | MIA2 C755 (UniProt Q96PC5) | -0.543
13 | MED19 C163 (UniProt A0JLT2) | 0.258
14 | MLLT1 C5 (UniProt Q03111) | 0.0657
15 | MON2 C373 (UniProt Q7Z3U7) | -0.341
16 | MED1 C501 (UniProt Q15648) | -0.0567
17 | MID1 C266 (UniProt O15344) | 0.0684
18 | MINPP1 C232 (UniProt Q9UNW1) | -0.0549
19 | MLH1 C494 (UniProt P40692) | 0.129
20 | MRM3 C309 (UniProt Q9HC36) | 0.0308

Same assay, conditions: 200 µM; treatment time: 4 h; cell line lysate: HEK293T

Row | Target | log2 mean competition ratio
21 | MORC4 C349 | -0.116
22 | MICAL2 C703 (UniProt O94851) | 0.159
23 | MKI67 C773 (UniProt P46013) | -0.173
24 | MPP1 C242 (UniProt Q00013) | -0.154
25 | METTL7A C96 (UniProt Q9H8H3) | 0.0742
26 | METTL16 C432 (UniProt Q86W50) | 0.142
27 | MICOS10 C13 (UniProt Q5TGZ0) | 0.122
28 | MLST8 C107 (UniProt Q9BVC4) | -0.0943
29 | MIX23 C74 | -0.189
30 | MLXIP C183 (UniProt Q9HAP2) | 0.217
31 | MEMO1 C88 (UniProt Q9Y316) | -0.0242
32 | MIA2 C755 (UniProt Q96PC5) | -0.0188
33 | MED19 C163 (UniProt A0JLT2) | 0.0665
34 | MLLT1 C5 (UniProt Q03111) | -0.291
35 | MON2 C373 (UniProt Q7Z3U7) | -0.0859
36 | MED1 C501 (UniProt Q15648) | -0.146
37 | MID1 C266 (UniProt O15344) | 0.0271
38 | MINPP1 C232 (UniProt Q9UNW1) | 0.233
39 | MLH1 C494 (UniProt P40692) | 0.00108
40 | MRM3 C309 (UniProt Q9HC36) | 0.391
